Article PMC3919598
Results are given in words; binding and its absence hold for the method and conditions named. Some results given as binding are weak or reduced against the parent protein; the word gives no strength. Where a sequence is shown, tags or fusion partners need not be part of it.

Target: T1, hexahistidine-tagged EME1 (human) (UniProt Q96AY2)
T1 sequence: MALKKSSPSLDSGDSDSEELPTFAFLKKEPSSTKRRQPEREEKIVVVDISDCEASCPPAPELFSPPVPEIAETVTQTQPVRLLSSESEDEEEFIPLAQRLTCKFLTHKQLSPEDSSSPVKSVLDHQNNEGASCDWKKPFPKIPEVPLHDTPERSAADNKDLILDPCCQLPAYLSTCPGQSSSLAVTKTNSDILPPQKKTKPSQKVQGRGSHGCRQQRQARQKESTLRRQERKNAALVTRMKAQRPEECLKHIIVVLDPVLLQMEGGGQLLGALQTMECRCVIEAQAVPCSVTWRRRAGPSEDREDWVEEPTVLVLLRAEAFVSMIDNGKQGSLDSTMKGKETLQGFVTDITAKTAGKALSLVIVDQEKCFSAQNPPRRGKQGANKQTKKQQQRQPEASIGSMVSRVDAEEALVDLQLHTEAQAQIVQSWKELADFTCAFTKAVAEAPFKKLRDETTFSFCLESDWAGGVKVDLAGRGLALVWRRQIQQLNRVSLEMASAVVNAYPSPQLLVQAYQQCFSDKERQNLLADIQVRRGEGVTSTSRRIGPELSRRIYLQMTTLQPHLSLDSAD
Experiment: co-purification (nickel affinity, ion exchange, gel filtration); MUS81 (non-tagged) and His6-EME1 co-expressed in High Five insect cells; extract passed over a HiTrap chelating column charged with nickel, a Mono S and/or a Superdex 200 column; traced by SDS-PAGE and western blot

binding: binds
B1: MUS81 (protein, UniProt Q96NY9 1-551)
chain: MAAPVRLGRKRPLPACPNPLFVRWLTEWRDEATRSRRRTRFVFQKALRSLRRYPLPLRSGKEAKILQHFGDGLCRMLDERLQRHRTSGGDHAPDSPSGENSPAPQGRLAEVQDSSMPVPAQPKAGGSGSYWPARHSGARVILLVLYREHLNPNGHHFLTKEELLQRCAQKSPRVAPGSARPWPALRSLLHRNLVLRTHQPARYSLTPEGLELAQKLAESEGLSLLNVGIGPKEPPGEETAVPGAASAELASEAGVQQQPLELRPGEYRVLLCVDIGETRGGGHRPELLRELQRLHVTHTVRKLHVGDFVWVAQETNPRDPANPGELVLDHIVERKRLDDLCSSIIDGRFREQKFRLKRCGLERRVYLVEEHGSVHNLSLPESTLLQAVTNTQVIDGFFVKRTADIKESAAYLALLTRGLQRLYQGHTLRSRPWGTPGNPESGAMTSPNPLCSLLTFSDFNAGAIKNKAQSVREVFARQLMQVRGVSGEKAAALVDRYSTPASLLAAYDACATPKEQETLLSTIKCGRLQRNLGPALSRTLSQLYCSYGPLT
